# The list shows a part of the results. The main result of the screen is listed elsewhere. These columns were measured beside it and carry no call. Compounds called inactive in the main read-out are mostly missing here. Words in brackets tell the shape of the fitted curve; partial curves, single points and poor fits give uncertain potencies.
# Experiment: qHTS Assay for Lipid Storage Modulators in Drosophila S3 Cells;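 on cell number change: cells counted by Cell Tracker Red CMTPX staining in the red channel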
# Conditions: BODIPY lipid droplet fluorescence, 18-24 h; for cell number change: measured here: cell count max response, cells fed with added oleic acid
# How it was run: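 Laser-scanning cytometry quantifies lipid droplet accumulation (500–530 nm total intensity; droplet/cell object ratio) in oleic acid-fed (400 uM added) Drosophila S3 cells treated with a concentration series. 20 uM Triacsin C defined 100% inhibition.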
# [1] = measured here: cell number channel AC50, cells fed with added oleic acid
# [2] = measured here: lipid fluorescence (Fed channel) AC50, cells fed with added oleic acid
SMILES,cell number change [%],AC50 [1],AC50 [2]
Fc1ccc(COc2ccc(Br)cc2CNCc2ccncc2)cc1,-4.32,–,–
O=C(NCCc1ccccc1)c1ccc2c(c1)OCCCO2,18.1,–,–
C=CCn1c(C)nnc1SCC(=O)Nc1oc(C)c2c(C)n[nH]c(=O)c12,–,"0.13 µM [falling, full curve, poor fit]",–
O=C(Cc1ccc(Br)cc1)Nc1ccc(Cl)cc1,–,"0.00461 µM [falling, full curve, poor fit]","0.00461 µM [falling, full curve, poor fit]"
COc1ccc(-c2csc(Nc3ccccc3)[n+]2Cc2ccccc2)cc1,-52.6,"1.84 µM [falling, partial curve]","25.9 µM [rising, single point]"
O=C(CCn1cnnn1)Nc1ccc(Cl)c(Cl)c1,-16.2,"0.00461 µM [falling, full curve, poor fit]",–
CN=C(C)C1=C(O)C(C(=O)OC)C(C)(C)CC1=O (stereo not drawn),-173,"20.6 µM [falling, partial curve]","20.6 µM [falling, partial curve]"
NCCCC[C@@H](C(=O)N1CCNCC1)n1cc(CN)nn1,24.9,–,–
CCOC(=O)c1cccc(Nc2nc(C)cc(C)n2)c1,–,–,"6.51 µM [rising, single point]"
Nc1cc(Nc2ccccc2)ccn1,-6.23,–,"3.26 µM [falling, single point]"
Cc1ccc(COc2ccc(C(=O)NN)cc2)cc1,24.8,–,"13 µM [rising, partial curve, poor fit]"
Cc1ccc(C2(C)NC(=O)N(CC(=O)NCc3cccs3)C2=O)cc1 (stereo not drawn),–,"0.146 µM [falling, full curve, poor fit]","0.731 µM [falling, partial curve, poor fit]"
COc1cc(/C=C2/SC(=S)N(c3c(C)n(C)n(-c4ccccc4)c3=O)C2=O)ccc1O,5.09,–,"29.1 µM [falling, single point]"
CSc1ccc(C#N)cc1NC(=O)c1ccc(Cl)cc1Cl,–,"1.03 µM [rising, full curve]","0.651 µM [rising, full curve]"
COc1ccccc1-c1nc(-c2cccc(C)c2)no1,-9.2,–,–
CS(=O)(=O)c1ccc2nc(NC(=O)C3COc4ccccc4O3)sc2c1 (stereo not drawn),-22.1,–,"32.6 µM [falling, partial curve, poor fit]"
C/C(=N/NC(=O)c1cccs1)c1ccco1,3.53,–,–
Cc1sc(NC(=S)NC(=O)c2cccs2)nc1-c1ccc(CC(C)C)cc1,14.8,–,–
O=C1C2CC=CCC2C(=O)N1CC1CCCO1 (stereo not drawn),-108,"25.9 µM [falling, partial curve]","6.51 µM [falling, single point]"

# One compound at a time, as listed above:
# CSc1ccc(C#N)cc1NC(=O)c1ccc(Cl)cc1Cl reads AC50 [1]: 1.03 µM [rising, full curve]; AC50 [2]: 0.651 µM [rising, full curve]
# C/C(=N/NC(=O)c1cccs1)c1ccco1 reads cell number change [%]: 3.53
